# In PubChem BioAssay AID186 (DTP/NCI, 2004):
# Values are animals surviving of animals treated; these mice carried no tumour. Counts of survivors are from the toxicity check (mostly the fifth day) where no day follows; animals may have died later. Schedule codes are those of the source, taken here to give the interval after Q, in days (D) or hours (H), and the number of doses after X. Some entries were tested several times; the values are given in rising order. Marks such as (2×) say how often a value occurs here.
# System: B6D2F1 mice, nontumored toxicity test, survival
# Test: NCI In Vivo Anticancer Drug Screen. Data for tumor model Nontumored Animals (Toxicity Test) in B6D2F1 (BDF1) mice
smiles,measurement,setting,value
CCN(CC)CCNc1ccc(CO)c2sc3ccccc3c(=O)c12,survivor count,"dose: 4.0 mg/kg/injection, schedule: Q01DX009 (ip), vehicle: saline",8 of 8
same,survivor count,"dose: 4.0 mg/kg/injection, schedule: Q03HX016 (ip), vehicle: saline",8 of 8
same,survivor count,"dose: 4.0 mg/kg/injection, schedule: Q03HX024 (ip), vehicle: saline",8 of 8
same,survivor count,"dose: 8.0 mg/kg/injection, schedule: Q01DX009 (ip), vehicle: saline",8 of 8
same,survivor count,"dose: 8.0 mg/kg/injection, schedule: Q03HX008 (ip), vehicle: saline",8 of 8
same,survivor count,"dose: 8.0 mg/kg/injection, schedule: Q03HX016 (ip), vehicle: saline",8 of 8
same,survivor count,"dose: 8.0 mg/kg/injection, schedule: Q03HX024 (ip), vehicle: saline",8 of 8
same,survivor count,"dose: 16.0 mg/kg/injection, schedule: Q01DX009 (ip), vehicle: saline",8 of 8
same,survivor count,"dose: 16.0 mg/kg/injection, schedule: Q01DX009 (sc), vehicle: saline",8 of 8
same,survivor count,"dose: 16.0 mg/kg/injection, schedule: Q03HX008 (ip), vehicle: saline",7 of 7
same,survivor count,"dose: 16.0 mg/kg/injection, schedule: Q03HX016 (ip), vehicle: saline",8 of 8
same,survivor count,"dose: 16.0 mg/kg/injection, schedule: Q03HX024 (ip), vehicle: saline",8 of 8
same,survivor count,"dose: 32.0 mg/kg/injection, schedule: Q01DX001 (ip), vehicle: saline",8 of 8
same,survivor count,"dose: 32.0 mg/kg/injection, schedule: Q01DX009 (ip), vehicle: saline",8 of 8
same,survivor count,"dose: 32.0 mg/kg/injection, schedule: Q01DX009 (oral), vehicle: saline",8 of 8
same,survivor count,"dose: 32.0 mg/kg/injection, schedule: Q01DX009 (sc), vehicle: saline",8 of 8
same,survivor count,"dose: 32.0 mg/kg/injection, schedule: Q03HX008 (ip), vehicle: saline",8 of 8
same,survivor count,"dose: 32.0 mg/kg/injection, schedule: Q03HX016 (ip), vehicle: saline",8 of 8
same,survivor count,"dose: 32.0 mg/kg/injection, schedule: Q03HX024 (ip), vehicle: saline",7 of 8
same,survivor count,"dose: 32.0 mg/kg/injection, schedule: Q04DX003 (ip), vehicle: saline",8 of 8
same,survivor count,"dose: 32.0 mg/kg/injection, schedule: Q08DX002 (ip), vehicle: saline",8 of 8
same,survivor count,"dose: 64.0 mg/kg/injection, schedule: Q01DX001 (ip), vehicle: saline",8 of 8
same,survivor count,"dose: 64.0 mg/kg/injection, schedule: Q01DX001 (sc), vehicle: saline",8 of 8
same,survivor count,"dose: 64.0 mg/kg/injection, schedule: Q01DX009 (ip), vehicle: saline",8 of 8
same,survivor count,"dose: 64.0 mg/kg/injection, schedule: Q01DX009 (oral), vehicle: saline",8 of 8
same,survivor count,"dose: 64.0 mg/kg/injection, schedule: Q01DX009 (sc), vehicle: saline",8 of 8
same,survivor count,"dose: 64.0 mg/kg/injection, schedule: Q03HX008 (ip), vehicle: saline",8 of 8
same,survivor count,"dose: 64.0 mg/kg/injection, schedule: Q03HX016 (ip), vehicle: saline",7 of 8
same,survivor count,"dose: 64.0 mg/kg/injection, schedule: Q03HX024 (ip), vehicle: saline",8 of 8
same,survivor count,"dose: 64.0 mg/kg/injection, schedule: Q04DX003 (ip), vehicle: saline",8 of 8
same,survivor count,"dose: 64.0 mg/kg/injection, schedule: Q08DX002 (ip), vehicle: saline",8 of 8
same,survivor count,"dose: 128.0 mg/kg/injection, schedule: Q01DX001 (ip), vehicle: saline",8 of 8
same,survivor count,"dose: 128.0 mg/kg/injection, schedule: Q01DX001 (sc), vehicle: saline",8 of 8
same,survivor count,"dose: 128.0 mg/kg/injection, schedule: Q01DX009 (ip), vehicle: saline",8 of 8
same,survivor count,"dose: 128.0 mg/kg/injection, schedule: Q01DX009 (oral), vehicle: saline",8 of 8
same,survivor count,"dose: 128.0 mg/kg/injection, schedule: Q01DX009 (sc), vehicle: saline",8 of 8
same,survivor count,"dose: 128.0 mg/kg/injection, schedule: Q03HX008 (ip), vehicle: saline",0 of 8
same,survivor count,"dose: 128.0 mg/kg/injection, schedule: Q03HX016 (ip), vehicle: saline",1 of 8
same,survivor count,"dose: 128.0 mg/kg/injection, schedule: Q04DX003 (ip), vehicle: saline",8 of 8
same,survivor count,"dose: 128.0 mg/kg/injection, schedule: Q08DX002 (ip), vehicle: saline",8 of 8
same,survivor count,"dose: 256.0 mg/kg/injection, schedule: Q01DX001 (ip), vehicle: saline",7 of 8
same,survivor count,"dose: 256.0 mg/kg/injection, schedule: Q01DX001 (oral), vehicle: saline",8 of 8 and 9 of 9
same,survivor count,"dose: 256.0 mg/kg/injection, schedule: Q01DX001 (sc), vehicle: saline",2 of 8
same,survivor count,"dose: 256.0 mg/kg/injection, schedule: Q01DX009 (oral), vehicle: saline",7 of 8 and 8 of 8
same,survivor count,"dose: 256.0 mg/kg/injection, schedule: Q01DX009 (sc), vehicle: saline",5 of 8
same,survivor count,"dose: 256.0 mg/kg/injection, schedule: Q04DX003 (ip), vehicle: saline",5 of 8
same,survivor count,"dose: 256.0 mg/kg/injection, schedule: Q08DX002 (ip), vehicle: saline",6 of 8
same,survivor count,"dose: 512.0 mg/kg/injection, schedule: Q01DX001 (ip), vehicle: saline",0 of 8
same,survivor count,"dose: 512.0 mg/kg/injection, schedule: Q01DX001 (oral), vehicle: saline",7 of 8 and 10 of 10
same,survivor count,"dose: 512.0 mg/kg/injection, schedule: Q01DX001 (sc), vehicle: saline",0 of 8
same,survivor count,"dose: 512.0 mg/kg/injection, schedule: Q01DX009 (oral), vehicle: saline",3 of 8 and 5 of 8
same,survivor count,"dose: 512.0 mg/kg/injection, schedule: Q04DX003 (ip), vehicle: saline",1 of 8
same,survivor count,"dose: 512.0 mg/kg/injection, schedule: Q08DX002 (ip), vehicle: saline",1 of 8
same,survivor count,"dose: 1024.0 mg/kg/injection, schedule: Q01DX001 (oral), vehicle: saline",5 of 8 and 7 of 8
same,survivor count,"dose: 1024.0 mg/kg/injection, schedule: Q01DX001 (sc), vehicle: saline",0 of 8
same,survivor count,"dose: 2048.0 mg/kg/injection, schedule: Q01DX001 (oral), vehicle: saline",0 of 8 and 1 of 8
OCC1OC(n2cnc3c2NC=NC[C@H]3O)CC1O (stereo partly specified),survivor count,"dose: 0.25 mg/kg/injection, schedule: Q01DX009 (ip), vehicle: saline",10 of 10
same,survivor count,"dose: 0.5 mg/kg/injection, schedule: Q01DX009 (ip), vehicle: saline",10 of 10
same,survivor count,"dose: 1.0 mg/kg/injection, schedule: Q01DX009 (ip), vehicle: saline",10 of 10
same,survivor count,"dose: 2.0 mg/kg/injection, schedule: Q01DX009 (ip), vehicle: saline",10 of 10
COc1cccc2c1C(=O)c1c(O)c3c(c(O)c1C2=O)C[C@@](O)(C(C)=O)C[C@@H]3OC1CC(N)C(O)C(C)O1 (stereo partly specified),survivor count,"dose: 0.25 mg/kg/injection, schedule: Q04DX003 (ip), vehicle: saline",4 of 4
same,survivor count,"dose: 0.28 mg/kg/injection, schedule: Q03HX008 (ip), vehicle: water",6 of 6
same,survivor count,"dose: 0.47 mg/kg/injection, schedule: Q03HX008 (ip), vehicle: water",6 of 6
same,survivor count,"dose: 0.5 mg/kg/injection, schedule: Q01DX009 (ip), vehicle: water",6 of 6
same,survivor count,"dose: 0.5 mg/kg/injection, schedule: Q03HX024 (ip), vehicle: water",6 of 6
same,survivor count,"dose: 0.5 mg/kg/injection, schedule: Q04DX003 (ip), vehicle: saline",4 of 4
same,survivor count,"dose: 0.65 mg/kg/injection, schedule: Q03HX008 (ip), vehicle: water",8 of 8
same,survivor count,"dose: 0.78 mg/kg/injection, schedule: Q03HX008 (ip), vehicle: water",6 of 6
same,survivor count,"dose: 1.0 mg/kg/injection, schedule: Q01DX009 (ip), vehicle: water",6 of 6
same,survivor count,"dose: 1.0 mg/kg/injection, schedule: Q03HX008 (ip), vehicle: water",6 of 6
same,survivor count,"dose: 1.0 mg/kg/injection, schedule: Q03HX024 (ip), vehicle: water",6 of 6
same,survivor count,"dose: 1.0 mg/kg/injection, schedule: Q04DX003 (ip), vehicle: saline",4 of 4
same,survivor count,"dose: 1.08 mg/kg/injection, schedule: Q03HX008 (ip), vehicle: water",8 of 8
same,survivor count,"dose: 1.17 mg/kg/injection, schedule: Q03HX008 (ip), vehicle: water",6 of 6
same,survivor count,"dose: 1.75 mg/kg/injection, schedule: Q03HX008 (ip), vehicle: water",2 of 6
same,survivor count,"dose: 1.75 mg/kg/injection, schedule: Q04DX003 (ip), vehicle: water",6 of 6
same,survivor count,"dose: 1.8 mg/kg/injection, schedule: Q03HX008 (ip), vehicle: water",8 of 8
same,survivor count,"dose: 2.0 mg/kg/injection, schedule: Q01DX009 (ip), vehicle: water",6 of 6
same,survivor count,"dose: 2.0 mg/kg/injection, schedule: Q03HX008 (ip), vehicle: water",6 of 6
same,survivor count,"dose: 2.0 mg/kg/injection, schedule: Q03HX024 (ip), vehicle: water",5 of 6
same,survivor count,"dose: 2.0 mg/kg/injection, schedule: Q04DX003 (ip), vehicle: saline",4 of 4
same,survivor count,"dose: 2.5 mg/kg/injection, schedule: Q01DX001 (ip), vehicle: water",6 of 6
same,survivor count,"dose: 2.5 mg/kg/injection, schedule: Q04DX003 (ip), vehicle: water",6 of 6
same,survivor count,"dose: 2.6 mg/kg/injection, schedule: Q04DX003 (ip), vehicle: water",6 of 6
same,survivor count,"dose: 3.0 mg/kg/injection, schedule: Q03HX008 (ip), vehicle: water",8 of 8
same,survivor count,"dose: 3.9 mg/kg/injection, schedule: Q01DX001 (ip), vehicle: water",6 of 6
same,survivor count,"dose: 3.9 mg/kg/injection, schedule: Q04DX003 (ip), vehicle: water",6 of 6
same,survivor count,"dose: 4.0 mg/kg/injection, schedule: Q03HX008 (ip), vehicle: water",5 of 6
same,survivor count,"dose: 5.0 mg/kg/injection, schedule: Q01DX001 (ip), vehicle: water",10 of 10 and 6 of 6 (2×)
same,survivor count,"dose: 5.0 mg/kg/injection, schedule: Q04DX003 (ip), vehicle: water",6 of 6
same,survivor count,"dose: 5.0 mg/kg/injection, schedule: Q08DX002 (ip), vehicle: water",6 of 6
same,survivor count,"dose: 5.9 mg/kg/injection, schedule: Q01DX001 (ip), vehicle: water",6 of 6
same,survivor count,"dose: 5.9 mg/kg/injection, schedule: Q04DX003 (ip), vehicle: water",6 of 6
same,survivor count,"dose: 8.9 mg/kg/injection, schedule: Q01DX001 (ip), vehicle: water",5 of 6
same,survivor count,"dose: 8.9 mg/kg/injection, schedule: Q04DX003 (ip), vehicle: water",6 of 6
same,survivor count,"dose: 10.0 mg/kg/injection, schedule: Q01DX001 (ip), vehicle: water",10 of 10 and 6 of 6 (2×)
same,survivor count,"dose: 10.0 mg/kg/injection, schedule: Q04DX003 (ip), vehicle: water",6 of 6
same,survivor count,"dose: 10.0 mg/kg/injection, schedule: Q08DX002 (ip), vehicle: water",6 of 6
same,survivor count,"dose: 13.3 mg/kg/injection, schedule: Q01DX001 (ip), vehicle: water",6 of 6
same,survivor count,"dose: 20.0 mg/kg/injection, schedule: Q01DX001 (ip), vehicle: water","1 of 10, 4 of 6, 5 of 6, 6 of 6"
same,survivor count,"dose: 20.0 mg/kg/injection, schedule: Q08DX002 (ip), vehicle: water",6 of 6
